Source: PubChem BioAssay AID260 (DTP/NCI, 2004)
Where “and” joins values, the source holds several entries; their conditions need not be identical. Identical values can stand only once. Inconclusive results and toxic doses are left out. How the source made its calls: active means survival T/C of 150% or more; inactive means T/C below 125% in these data.

System: CD2F1 mice, intracerebral L1210 leukemia, survival T/C
Test: NCI In Vivo Anticancer Drug Screen. Data for tumor model L1210 Leukemia (intracerebral) in CD2F1 (CDF1) mice
Conditions: endpoint: median survival time, schedule: Q01DX005 (ip), vehicle: Klucel (hydroxypropylcellulose) (HPC), higher = longer survival
Description: The antitumor activity of compounds was measured in mice bearing transplantable tumors. Survival or tumor size were measured and the results are expressed as the measurement made in the treated group (T) divided by the measurement made in the vehicle treated control group (C). The tumor model used in this assay is L1210 Leukemia (intracerebral) in CD2F1 (CDF1) mice

Measured: T/C

COc1cc2c(c(OC)c1OC)-c1ccc(OC)c(=O)cc1[C@@H](N)CC2
inactive: dose: 4.0 mg/kg/injection 119 % of control and 108 % of control | dose: 8.0 mg/kg/injection 120 % of control and 109 % of control | dose: 16.0 mg/kg/injection 120 % of control
